Measured values as given in the supplement of paper PMC10849652.
The list shows a part of the results.

By UniProt entry, the sequences of proteins in these tests, tags left out. Where a name states a change or a piece, a line headed by the entry shows the natural chain unless it says otherwise.
UniProt Q00765: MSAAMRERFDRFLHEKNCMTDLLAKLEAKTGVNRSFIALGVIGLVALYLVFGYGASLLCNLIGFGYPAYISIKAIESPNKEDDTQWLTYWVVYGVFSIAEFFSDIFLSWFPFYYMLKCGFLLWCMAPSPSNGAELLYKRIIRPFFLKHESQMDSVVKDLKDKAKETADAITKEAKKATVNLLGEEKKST
UniProt Q5T8P6: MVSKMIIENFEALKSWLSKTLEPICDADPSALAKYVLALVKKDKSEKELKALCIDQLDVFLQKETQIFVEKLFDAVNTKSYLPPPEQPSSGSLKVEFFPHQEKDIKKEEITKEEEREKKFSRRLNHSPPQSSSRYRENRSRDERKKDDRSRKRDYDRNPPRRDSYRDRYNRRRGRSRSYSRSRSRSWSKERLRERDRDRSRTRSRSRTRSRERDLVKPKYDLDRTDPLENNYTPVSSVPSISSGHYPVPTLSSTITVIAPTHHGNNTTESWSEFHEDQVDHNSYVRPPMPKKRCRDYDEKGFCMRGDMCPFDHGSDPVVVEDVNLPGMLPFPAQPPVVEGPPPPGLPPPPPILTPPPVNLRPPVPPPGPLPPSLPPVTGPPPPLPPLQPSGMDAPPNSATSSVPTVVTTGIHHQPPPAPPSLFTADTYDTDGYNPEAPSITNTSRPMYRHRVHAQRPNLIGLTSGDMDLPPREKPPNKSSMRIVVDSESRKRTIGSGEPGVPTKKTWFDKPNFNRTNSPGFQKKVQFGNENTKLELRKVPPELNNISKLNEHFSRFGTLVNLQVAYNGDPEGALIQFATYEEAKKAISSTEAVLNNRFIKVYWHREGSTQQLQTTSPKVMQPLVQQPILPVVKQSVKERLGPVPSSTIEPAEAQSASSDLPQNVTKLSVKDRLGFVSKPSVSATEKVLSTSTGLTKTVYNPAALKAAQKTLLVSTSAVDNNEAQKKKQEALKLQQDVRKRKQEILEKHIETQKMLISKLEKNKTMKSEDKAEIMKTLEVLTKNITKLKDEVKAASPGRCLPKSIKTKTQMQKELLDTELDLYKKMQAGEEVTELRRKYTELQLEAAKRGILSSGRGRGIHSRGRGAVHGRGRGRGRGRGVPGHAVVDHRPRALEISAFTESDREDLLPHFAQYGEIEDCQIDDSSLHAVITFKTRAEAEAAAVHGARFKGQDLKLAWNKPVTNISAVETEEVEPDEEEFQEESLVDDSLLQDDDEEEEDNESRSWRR
UniProt O15258: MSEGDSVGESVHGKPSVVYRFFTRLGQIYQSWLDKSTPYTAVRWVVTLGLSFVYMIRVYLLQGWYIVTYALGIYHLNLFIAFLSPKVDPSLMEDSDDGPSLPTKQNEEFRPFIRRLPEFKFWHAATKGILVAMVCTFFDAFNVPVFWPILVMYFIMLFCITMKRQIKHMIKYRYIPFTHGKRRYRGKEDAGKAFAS
UniProt Q6NUM9: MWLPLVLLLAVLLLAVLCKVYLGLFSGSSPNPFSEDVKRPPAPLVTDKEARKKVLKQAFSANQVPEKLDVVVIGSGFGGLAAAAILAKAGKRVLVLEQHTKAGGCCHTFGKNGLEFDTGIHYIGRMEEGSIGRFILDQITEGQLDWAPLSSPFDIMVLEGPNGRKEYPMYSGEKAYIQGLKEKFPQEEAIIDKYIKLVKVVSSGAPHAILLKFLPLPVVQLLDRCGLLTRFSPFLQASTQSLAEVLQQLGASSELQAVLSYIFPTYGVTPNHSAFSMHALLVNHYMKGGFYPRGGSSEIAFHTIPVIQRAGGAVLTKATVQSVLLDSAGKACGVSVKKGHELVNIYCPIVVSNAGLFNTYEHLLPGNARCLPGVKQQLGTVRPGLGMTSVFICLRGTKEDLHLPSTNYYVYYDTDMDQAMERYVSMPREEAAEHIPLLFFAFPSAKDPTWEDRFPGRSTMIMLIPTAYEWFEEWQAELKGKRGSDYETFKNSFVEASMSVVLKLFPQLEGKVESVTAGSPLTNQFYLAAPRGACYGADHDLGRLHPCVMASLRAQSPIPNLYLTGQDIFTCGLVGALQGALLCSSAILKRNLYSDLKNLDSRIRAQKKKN
UniProt Q92546: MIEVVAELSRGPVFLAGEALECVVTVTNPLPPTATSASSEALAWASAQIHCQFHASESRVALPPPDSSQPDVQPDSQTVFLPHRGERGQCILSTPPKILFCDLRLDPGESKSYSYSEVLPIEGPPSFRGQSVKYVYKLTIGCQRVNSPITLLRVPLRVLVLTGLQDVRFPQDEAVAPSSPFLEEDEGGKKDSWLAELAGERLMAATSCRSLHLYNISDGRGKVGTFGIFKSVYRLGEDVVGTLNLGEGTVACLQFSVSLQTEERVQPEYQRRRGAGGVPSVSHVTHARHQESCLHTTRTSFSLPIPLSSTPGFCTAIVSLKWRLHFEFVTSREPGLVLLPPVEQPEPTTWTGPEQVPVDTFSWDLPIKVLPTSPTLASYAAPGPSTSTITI
UniProt Q9GZR2: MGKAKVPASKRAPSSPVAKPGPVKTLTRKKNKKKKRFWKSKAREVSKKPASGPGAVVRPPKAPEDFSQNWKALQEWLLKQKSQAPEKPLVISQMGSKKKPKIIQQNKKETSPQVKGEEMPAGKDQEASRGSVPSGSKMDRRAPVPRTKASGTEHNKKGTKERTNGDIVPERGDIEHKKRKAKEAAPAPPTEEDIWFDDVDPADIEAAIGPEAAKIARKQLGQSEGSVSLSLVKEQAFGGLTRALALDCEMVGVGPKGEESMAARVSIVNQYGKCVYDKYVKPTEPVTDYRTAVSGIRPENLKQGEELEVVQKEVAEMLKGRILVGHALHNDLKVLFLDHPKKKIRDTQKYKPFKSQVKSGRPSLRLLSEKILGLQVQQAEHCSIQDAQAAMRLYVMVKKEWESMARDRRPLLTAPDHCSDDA
UniProt O14593: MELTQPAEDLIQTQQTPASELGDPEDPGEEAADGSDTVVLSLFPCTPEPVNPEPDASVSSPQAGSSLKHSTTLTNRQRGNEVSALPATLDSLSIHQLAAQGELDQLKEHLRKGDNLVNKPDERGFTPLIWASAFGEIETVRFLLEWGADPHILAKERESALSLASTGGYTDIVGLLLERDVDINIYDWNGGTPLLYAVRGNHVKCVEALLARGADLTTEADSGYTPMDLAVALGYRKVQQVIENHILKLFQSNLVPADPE
UniProt Q02094: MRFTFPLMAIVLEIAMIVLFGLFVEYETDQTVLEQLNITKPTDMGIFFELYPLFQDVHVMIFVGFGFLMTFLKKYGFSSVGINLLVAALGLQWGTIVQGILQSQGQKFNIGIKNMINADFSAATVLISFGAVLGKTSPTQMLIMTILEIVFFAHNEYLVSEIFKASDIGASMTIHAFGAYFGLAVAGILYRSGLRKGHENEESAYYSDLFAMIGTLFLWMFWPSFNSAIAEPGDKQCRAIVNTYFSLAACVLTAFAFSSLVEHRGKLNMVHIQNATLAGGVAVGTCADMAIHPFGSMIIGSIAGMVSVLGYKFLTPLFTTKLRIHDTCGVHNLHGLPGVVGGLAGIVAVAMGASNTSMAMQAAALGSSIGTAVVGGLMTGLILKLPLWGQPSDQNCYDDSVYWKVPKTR
UniProt P78332: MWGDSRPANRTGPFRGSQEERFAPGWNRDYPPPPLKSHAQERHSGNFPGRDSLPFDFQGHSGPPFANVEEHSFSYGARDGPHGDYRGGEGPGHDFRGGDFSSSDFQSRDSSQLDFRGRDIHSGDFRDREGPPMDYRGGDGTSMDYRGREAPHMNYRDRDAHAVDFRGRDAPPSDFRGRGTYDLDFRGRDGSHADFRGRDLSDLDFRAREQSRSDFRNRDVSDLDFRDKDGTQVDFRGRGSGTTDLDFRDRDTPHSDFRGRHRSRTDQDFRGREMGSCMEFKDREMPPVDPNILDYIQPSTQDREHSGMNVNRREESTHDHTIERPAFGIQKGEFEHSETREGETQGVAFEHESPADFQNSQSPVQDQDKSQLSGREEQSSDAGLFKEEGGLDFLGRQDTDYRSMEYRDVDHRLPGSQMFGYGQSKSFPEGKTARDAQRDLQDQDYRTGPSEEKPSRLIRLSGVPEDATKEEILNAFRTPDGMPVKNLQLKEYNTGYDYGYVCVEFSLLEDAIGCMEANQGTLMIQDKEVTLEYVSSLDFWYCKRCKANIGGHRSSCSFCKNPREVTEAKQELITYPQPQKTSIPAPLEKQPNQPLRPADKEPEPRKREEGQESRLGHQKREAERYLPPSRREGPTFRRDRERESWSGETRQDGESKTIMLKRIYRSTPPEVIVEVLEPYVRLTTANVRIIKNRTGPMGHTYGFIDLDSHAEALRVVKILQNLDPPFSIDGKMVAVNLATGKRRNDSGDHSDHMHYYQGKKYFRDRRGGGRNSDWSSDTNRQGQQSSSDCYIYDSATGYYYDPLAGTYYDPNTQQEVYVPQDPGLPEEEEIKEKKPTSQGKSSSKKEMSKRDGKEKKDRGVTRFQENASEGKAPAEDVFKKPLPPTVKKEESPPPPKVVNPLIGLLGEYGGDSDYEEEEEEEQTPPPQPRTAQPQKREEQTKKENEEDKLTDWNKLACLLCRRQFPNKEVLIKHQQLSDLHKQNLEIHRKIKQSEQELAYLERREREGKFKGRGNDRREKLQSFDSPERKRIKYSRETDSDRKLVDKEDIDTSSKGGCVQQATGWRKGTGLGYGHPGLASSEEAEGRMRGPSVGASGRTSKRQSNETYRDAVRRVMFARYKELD
UniProt P35241, whole entry, looked up: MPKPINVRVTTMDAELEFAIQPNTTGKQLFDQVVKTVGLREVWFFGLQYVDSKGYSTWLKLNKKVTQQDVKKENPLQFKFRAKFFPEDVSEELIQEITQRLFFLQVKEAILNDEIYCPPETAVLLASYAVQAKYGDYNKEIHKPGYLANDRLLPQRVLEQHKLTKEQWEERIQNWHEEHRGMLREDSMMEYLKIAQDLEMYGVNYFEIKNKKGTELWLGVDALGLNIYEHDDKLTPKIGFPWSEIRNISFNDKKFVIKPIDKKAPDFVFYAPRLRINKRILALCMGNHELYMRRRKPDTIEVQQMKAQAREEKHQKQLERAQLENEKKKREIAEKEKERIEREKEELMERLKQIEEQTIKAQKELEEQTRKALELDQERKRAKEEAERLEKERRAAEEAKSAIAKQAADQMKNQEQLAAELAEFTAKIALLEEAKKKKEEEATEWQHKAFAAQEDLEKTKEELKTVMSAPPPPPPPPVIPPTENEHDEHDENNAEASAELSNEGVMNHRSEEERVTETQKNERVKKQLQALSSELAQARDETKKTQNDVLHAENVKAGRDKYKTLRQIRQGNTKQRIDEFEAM
UniProt P46063: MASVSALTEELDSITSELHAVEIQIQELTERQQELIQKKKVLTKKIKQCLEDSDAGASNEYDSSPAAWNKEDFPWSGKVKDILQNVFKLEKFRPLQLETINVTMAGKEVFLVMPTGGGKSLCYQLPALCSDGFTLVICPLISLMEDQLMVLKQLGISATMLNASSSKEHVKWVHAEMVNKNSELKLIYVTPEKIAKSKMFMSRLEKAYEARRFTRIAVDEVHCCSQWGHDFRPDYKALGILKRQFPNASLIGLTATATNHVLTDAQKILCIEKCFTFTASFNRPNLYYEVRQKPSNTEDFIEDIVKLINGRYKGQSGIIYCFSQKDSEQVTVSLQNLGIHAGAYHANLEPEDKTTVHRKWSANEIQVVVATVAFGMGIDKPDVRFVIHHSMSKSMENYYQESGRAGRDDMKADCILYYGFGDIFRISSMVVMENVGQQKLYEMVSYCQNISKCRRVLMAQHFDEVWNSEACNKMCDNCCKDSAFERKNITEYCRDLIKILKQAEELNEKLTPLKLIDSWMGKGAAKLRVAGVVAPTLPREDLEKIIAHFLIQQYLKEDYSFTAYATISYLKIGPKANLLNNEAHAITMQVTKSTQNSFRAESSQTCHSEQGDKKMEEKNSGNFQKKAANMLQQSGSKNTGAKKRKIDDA
UniProt Q8TEB9: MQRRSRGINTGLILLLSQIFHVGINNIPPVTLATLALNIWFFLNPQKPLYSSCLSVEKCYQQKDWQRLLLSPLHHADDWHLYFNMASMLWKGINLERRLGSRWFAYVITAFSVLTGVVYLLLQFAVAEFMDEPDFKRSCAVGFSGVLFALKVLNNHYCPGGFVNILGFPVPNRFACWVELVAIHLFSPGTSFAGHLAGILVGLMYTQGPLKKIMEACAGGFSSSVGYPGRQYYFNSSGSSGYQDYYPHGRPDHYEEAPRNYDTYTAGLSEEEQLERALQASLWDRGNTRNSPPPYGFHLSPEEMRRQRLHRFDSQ
UniProt Q96I25: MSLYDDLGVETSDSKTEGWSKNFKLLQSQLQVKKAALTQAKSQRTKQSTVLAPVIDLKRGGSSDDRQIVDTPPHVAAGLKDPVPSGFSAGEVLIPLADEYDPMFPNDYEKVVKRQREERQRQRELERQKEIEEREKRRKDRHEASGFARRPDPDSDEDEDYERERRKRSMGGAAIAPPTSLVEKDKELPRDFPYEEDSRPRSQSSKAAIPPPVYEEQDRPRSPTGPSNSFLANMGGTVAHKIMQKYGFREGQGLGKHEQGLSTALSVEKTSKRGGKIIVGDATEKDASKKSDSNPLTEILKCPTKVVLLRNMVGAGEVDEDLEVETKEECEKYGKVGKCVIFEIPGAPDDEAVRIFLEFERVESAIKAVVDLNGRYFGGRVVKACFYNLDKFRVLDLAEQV

Tests used:
Assay in all cases: log2 fold change, soluble protein after heating vs DMSO (PISA); higher = thermal stabilisation; K562 lysate, 10 uM; active = over 0.2 and 3.5 SD of the protein, either way, in both replicates (recomputed)
vemurafenib = compound: CCCS(=O)(=O)Nc1ccc(F)c(C(=O)c2c[nH]c3ncc(-c4ccc(Cl)cc4)cc23)c1F [vemurafenib]
Summary of the method: (§1)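 A 30 min treatment with 10 μM compound was applied to crude K562 extract at 1 mg/mL protein in PBS pH 7.4 with 1 mM MgCl2. Heating for 3 min spanned 48°C-58°C, after which aliquots were pooled, adjusted to 0.5% NP-40 at 4°C and spun at 21,000xg for 90 min. TMTpro 16plex LC-MS/MS of the supernatant, with channel sums equalised, gave values recorded as log-two fold change in thermal stability against solvent controls, from duplicates.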

[1] = compound: CCCS(=O)(=O)Nc1ccc(F)c(C(=O)c2c[nH]c3ncc(Cl)cc23)c1F
Summary of the method: as §1

barasertib = compound: CCN(CCCOc1ccc2c(Nc3cc(CC(=O)Nc4cccc(F)c4)[nH]n3)ncnc2c1)CCOP(=O)(O)O [barasertib]
Summary of the method: as §1

[2] = compound: CC[C@@H]1C(=O)N(C)c2cnc(Nc3ccc(C(=O)NC4CCN(C)CC4)cc3OC)nc2N1C1CCCC1
Summary of the method: as §1

volasertib = compound: CC[C@@H]1C(=O)N(C)c2cnc(Nc3ccc(C(=O)N[C@H]4CC[C@H](N5CCN(CC6CC6)CC5)CC4)cc3OC)nc2N1C(C)C [volasertib]
Summary of the method: as §1

[3] = compound: CCn1c(C(=O)N(C2CC2)C2CC2)cc2c3c(ncn3C)c(Nc3cc(C)n(C)n3)nc21
Summary of the method: as §1

[4] = compound: CCn1cc(-c2ccnc3[nH]c(-c4cccc(CN(C)C)c4)cc23)c(-c2ccc(NC(=O)N(C)C)cc2)n1
Summary of the method: as §1

[5] = compound: CN1CCC(CNc2ccc3ncc(-c4cccc(OC(F)(F)F)c4)n3n2)CC1
Summary of the method: as §1

saracatinib = compound: CN1CCN(CCOc2cc(OC3CCOCC3)c3c(Nc4c(Cl)ccc5c4OCO5)ncnc3c2)CC1 [saracatinib]
Summary of the method: as §1

sotrastaurin = compound: CN1CCN(c2nc(C3=C(c4c[nH]c5ccccc45)C(=O)NC3=O)c3ccccc3n2)CC1 [sotrastaurin]
Summary of the method: as §1

Measured: log2 fold change

REEP5 (UniProt Q00765)
inactive: vemurafenib -0.008 | [1] -0.006 | barasertib -0.008 | [2] 0.073 | volasertib 0.023 | [3] 0.027 | [4] -0.051 | [5] 0.026 | saracatinib 0.017 | sotrastaurin -0.02

RBM23 isoform 2 (UniProt Q86U06)
inactive: vemurafenib 0.2 | [1] 0.02 | barasertib 0.234 | [2] -0.153 | volasertib -0.011 | [3] 0.058 | [4] -0.01 | [5] -0.143 | saracatinib 0.064 | sotrastaurin 0.131

RDH14 (UniProt Q9HBH5)
inactive: vemurafenib 0.038 | [1] 0.026 | barasertib -0.007 | [2] -0.076 | volasertib -0.022 | [3] 0.009 | [4] -0.228 | [5] 0.061 | saracatinib -0.015 | sotrastaurin 0.074

RBM26 isoform 2 (UniProt Q5T8P6)
inactive: vemurafenib 0.012 | [1] 0.014 | barasertib 0.032 | [2] -0.005 | volasertib -0.008 | [3] 0.011 | [4] 0.138 | [5] -0.124 | saracatinib 0.027 | sotrastaurin 0.021

RBBP7 isoform 2 (UniProt Q16576)
active: [4] -0.274
inactive: vemurafenib -0.064 | [1] -0.007 | barasertib -0.042 | [2] -0.057 | volasertib 0.022 | [3] 0.047 | [5] 0.088 | saracatinib 0.001 | sotrastaurin 0.032

RER1 (UniProt O15258)
inactive: vemurafenib -0.021 | [1] -0.008 | barasertib 0.021 | [2] 0.061 | volasertib 0.049 | [3] -0.002 | [4] -0.141 | [5] 0.035 | saracatinib -0.031 | sotrastaurin 0.026

RFX1 (UniProt P22670)
inactive: vemurafenib -0.004 | [1] 0.028 | barasertib 0.047 | [2] 0.017 | volasertib 0 | [3] -0.011 | [4] 0.074 | [5] 0.037 | saracatinib 0.019 | sotrastaurin -0.014

2 neighbouring records already listed, quoted:
RER1 (UniProt O15258)
inactive: vemurafenib -0.021 | [1] -0.008 | barasertib 0.021 | [2] 0.061 | volasertib 0.049 | [3] -0.002 | [4] -0.141 | [5] 0.035 | saracatinib -0.031 | sotrastaurin 0.026

RFX1 (UniProt P22670)
inactive: vemurafenib -0.004 | [1] 0.028 | barasertib 0.047 | [2] 0.017 | volasertib 0 | [3] -0.011 | [4] 0.074 | [5] 0.037 | saracatinib 0.019 | sotrastaurin -0.014

More results:

RETSAT (UniProt Q6NUM9)
inactive: vemurafenib 0.115 | [1] 0.039 | barasertib 0.076 | [2] 0 | volasertib -0.087 | [3] -0.297 | [4] -0.318 | [5] 0.116 | saracatinib 0.108 | sotrastaurin -0.119

RGP1 (UniProt Q92546)
inactive: vemurafenib -0.063 | [1] 0.095 | barasertib 0.066 | [2] -0.155 | volasertib -0.061 | [3] -0.064 | [4] 0.082 | [5] -0.089 | saracatinib 0.059 | sotrastaurin -0.002

REXO4 (UniProt Q9GZR2)
inactive: vemurafenib -0.018 | [1] 0.007 | barasertib 0.088 | [2] 0.013 | volasertib -0.034 | [3] 0 | [5] -0.184 | saracatinib -0.002 | sotrastaurin 0.013
active: [4] 0.452

RFLNB (UniProt Q8N5W9)
inactive: vemurafenib 0 | [1] 0.081 | barasertib -0.066 | [2] -0.02 | volasertib -0.03 | [3] -0.071 | [4] 0.04 | [5] 0.064 | saracatinib -0.083 | sotrastaurin 0.062

RARS2 (UniProt Q5T160)
inactive: vemurafenib 0.021 | [1] 0 | barasertib 0.082 | [2] -0.016 | volasertib -0.081 | [3] -0.011 | [4] -0.058 | [5] -0.174 | saracatinib -0.006 | sotrastaurin 0.003

RFXANK (UniProt O14593)
inactive: vemurafenib -0.041 | [1] -0.005 | barasertib 0.133 | [2] -0.041 | volasertib 0.029 | [3] -0.006 | [4] 0.049 | [5] -0.126 | saracatinib 0.046 | sotrastaurin -0.002

RHAG (UniProt Q02094)
active: [4] -0.413
inactive: vemurafenib -0.032 | [1] -0.116 | barasertib 0.054 | [2] -0.16 | volasertib 0.053 | [3] -0.003 | [5] 0.121 | saracatinib 0.053 | sotrastaurin 0.029

RFC4 (UniProt P35249)
inactive: vemurafenib 0.047 | [1] 0.02 | barasertib 0.02 | [2] -0.012 | volasertib -0.042 | [3] 0.003 | [4] -0.086 | [5] 0.028 | saracatinib 0.044 | sotrastaurin 0.003

RELN (UniProt P78509)
inactive: vemurafenib 0.043 | [1] -0.098 | barasertib 0.004 | [2] 0.024 | volasertib -0.019 | [3] 0.021 | [4] -0.024 | [5] 0.152 | saracatinib 0.035 | sotrastaurin 0.02

RBM6 (UniProt P78332)
inactive: vemurafenib -0.013 | [1] -0.047 | barasertib 0.007 | [2] 0.015 | volasertib -0.021 | [3] 0.047 | [4] -0.011 | [5] 0.032 | saracatinib 0.046 | sotrastaurin -0.009

RCE1 (UniProt Q9Y256)
inactive: vemurafenib -0.097 | [1] -0.046 | barasertib 0.017 | [2] 0.001 | volasertib -0.123 | [3] -0.067 | [4] -0.182 | [5] 0.045 | saracatinib -0.038 | sotrastaurin 0.113

RDX (UniProt P35241)
active: [4] 0.712
inactive: vemurafenib 0 | [1] -0.008 | barasertib 0.003 | [2] 0.016 | volasertib 0.017 | [3] -0.018 | [5] -0.109 | saracatinib -0.018 | sotrastaurin -0.013

RECQL (UniProt P46063)
inactive: vemurafenib 0.001 | [1] 0.015 | barasertib -0.007 | [2] -0.016 | volasertib -0.005 | [3] -0.013 | [4] -0.043 | [5] 0.002 | saracatinib 0.013 | sotrastaurin 0.006

RASA3 (UniProt Q14644)
inactive: vemurafenib -0.008 | [1] 0.009 | barasertib 0.107 | [2] -0.1 | volasertib -0.082 | [3] -0.058 | [4] 0.105 | [5] 0.298 | saracatinib -0.003 | sotrastaurin 0.048

RBMX (UniProt P38159)
inactive: vemurafenib -0.058 | [1] 0.013 | barasertib -0.026 | [2] -0.012 | volasertib -0.02 | [3] 0.067 | [4] -0.007 | [5] 0.009 | saracatinib -0.031 | sotrastaurin -0.014

RCOR3 isoform 3 (UniProt Q9P2K3)
inactive: vemurafenib -0.03 | [1] -0.01 | barasertib -0.003 | [2] -0.001 | volasertib -0.012 | [3] 0.029 | [4] -0.017 | [5] 0.003 | saracatinib 0.03 | sotrastaurin -0.015

RAPGEF6 isoform 4 (UniProt Q8TEU7)
inactive: vemurafenib 0.009 | [1] 0.026 | barasertib 0.027 | [2] -0.024 | volasertib 0.004 | [3] 0.004 | [4] 0.006 | [5] -0.019 | saracatinib 0.005 | sotrastaurin 0.01

RHBDD1 (UniProt Q8TEB9)
inactive: vemurafenib 0.105 | [1] -0.08 | barasertib -0.05 | [2] -0.16 | volasertib -0.074 | [4] 0.016 | [5] -0.029

RBMY1E (UniProt A6NEQ0)
inactive: vemurafenib -0.023 | [1] -0.142 | barasertib 0.037 | [2] 0.141 | volasertib -0.092 | [4] -0.141 | [5] -0.216 | saracatinib 0.082 | sotrastaurin 0.044

RBM17 (UniProt Q96I25)
inactive: vemurafenib 0.002 | [1] 0.033 | barasertib 0.006 | [2] 0.007 | volasertib -0.012 | [3] 0.012 | [4] 0.049 | [5] -0.101 | saracatinib -0.008 | sotrastaurin -0.027

RBM7 (UniProt Q9Y580)
inactive: vemurafenib 0.066 | [1] 0.035 | barasertib 0.068 | [2] 0.008 | volasertib -0.03 | [3] 0.018 | [4] 0.016 | [5] 0.011 | saracatinib 0.026 | sotrastaurin 0.046
